# Assay results from PubChem BioAssay AID743255 (National Center for Advancing Translational Sciences (NCATS), 2014).
# Sequences of proteins named here, by UniProt entry; tags and fusion partners are left off. A change or cut given only in a name is not applied to a line headed by its entry.
# UniProt O94782: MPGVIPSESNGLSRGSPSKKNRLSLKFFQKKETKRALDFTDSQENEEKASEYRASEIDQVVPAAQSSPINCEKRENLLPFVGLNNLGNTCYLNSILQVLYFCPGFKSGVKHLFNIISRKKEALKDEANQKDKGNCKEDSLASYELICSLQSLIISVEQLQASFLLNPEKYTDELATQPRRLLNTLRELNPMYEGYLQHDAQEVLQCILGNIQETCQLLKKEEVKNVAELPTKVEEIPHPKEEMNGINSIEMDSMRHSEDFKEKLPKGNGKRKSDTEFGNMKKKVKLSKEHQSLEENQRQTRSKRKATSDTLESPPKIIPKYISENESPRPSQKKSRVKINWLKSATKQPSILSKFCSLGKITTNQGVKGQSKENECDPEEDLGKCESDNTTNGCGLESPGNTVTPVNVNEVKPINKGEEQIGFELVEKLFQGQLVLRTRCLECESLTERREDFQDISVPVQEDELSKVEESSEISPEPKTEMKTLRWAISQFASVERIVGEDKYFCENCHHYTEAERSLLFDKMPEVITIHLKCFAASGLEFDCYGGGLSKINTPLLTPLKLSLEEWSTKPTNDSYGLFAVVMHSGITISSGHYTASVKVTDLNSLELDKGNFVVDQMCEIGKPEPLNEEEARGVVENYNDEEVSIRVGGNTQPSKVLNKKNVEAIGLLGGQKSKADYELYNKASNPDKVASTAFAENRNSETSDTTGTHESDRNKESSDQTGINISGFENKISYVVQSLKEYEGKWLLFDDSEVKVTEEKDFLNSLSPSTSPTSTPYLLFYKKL
# Hit rate of the full screen: of about 390,000 compounds, about 910 (0.23%) were called active. The shares of active, inactive and inconclusive entries below differ from those in the screen. Calls come from the whole dose curve; as a rule, active = well fitted inhibition curve with a large enough effect; inconclusive = small, poorly fitted or top-dose-only effect; inactive = no such curve, though single readings can be large or run the other way. Potencies of inconclusive entries are doubtful fits and often do not repeat.
# Molecular target: Ubiquitin carboxyl-terminal hydrolase 1 (Homo sapiens) (UniProt O94782)
# Experiment: Inhibitors of USP1/UAF1: Primary Screen; note: nearly all actives have a fitted effect of over 60% in size
# Conditions: recombinant USP1/UAF1, Ub-Rhodamine cleavage fluorescence; activity change, negative = inhibition: at 57.1 µM (top of the series)
# Method in brief: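 1 nM enzyme complex + cpd, 15 min RT; start with Ub-Rho 150nM final; kinetic fluorescence ex 480/em 540, 6 reads q60 s. Buffer 50mM HEPES pH 7.8, 0.5mM EDTA, 0.1 mg/ml BSA, 1mM TCEP, 0.01% Tween-20.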
# % is set by controls: 0 for no effect and ±100 for the full control effect; potency is the fitted concentration of half-maximal effect.
Structure (SMILES),"activity change, negative = inhibition",Potency
O=C(O)c1ccccc1Oc1ccc(Oc2ccccc2)cc1,inactive: -22.5%,
Cc1cccc(Cc2c(C)nc3nc(SCc4ccccc4F)nn3c2C)c1,,"inconclusive: 7.94 µM [inhibitor, single point]"
COc1ccccc1NC(=O)CSc1oc(-c2ccccc2)nc1S(=O)(=O)c1ccccc1,,"inconclusive: 5.62 µM [inhibitor, single point]"
Nc1c(C(=O)Nc2ccccc2)c2nc3ccccc3nc2n1-c1ccc(O)cc1,inactive: -11.6%,
CCOC(=O)C1CCN(S(=O)(=O)c2ccc3c4c(cccc24)C(=O)N3CC)CC1,,"inconclusive: 0.891 µM [inhibitor, full curve, poor fit]"
CC1O[C@@H](OC2C(COC3OC(CO)C(O)[C@H](O)C3O)OC(OC3CC[C@]4(C)C(CC[C@@]5(C)[C@@H]4CC=C4[C@@H]6CC(C)(C)CC[C@]6(CO)C(O)C[C@]45C)C3(C)C)C(O)C2O)C(O)C(O)C1O (stereo not given in full),,"inconclusive: 7.94 µM [inhibitor, partial curve]"
O=C(NCCNC(=O)c1ccc(Cl)cc1Cl)c1cnccn1,,"inconclusive: 0.631 µM [inhibitor, full curve, poor fit]"
Cc1ccc(CCNC(=O)CCn2nc(-c3ccc(Cl)cc3)ccc2=O)cc1,,"inconclusive: 4.47 µM [inhibitor, single point]"
COC(=O)c1ccc(NC(=O)Nc2ccccc2F)cc1,,"inconclusive: 44.7 µM [inhibitor, partial curve]"
O=C(NCCCN1CCC(Cc2ccccc2)CC1)C1CC(=O)N(C2CCCC2)C1 (stereo not given),,"inconclusive: 15.8 µM [inhibitor, partial curve]"
COc1ccc(/C=C2\CCC/C(=C\C=N\N(C)C)C2=O)cc1,,"inconclusive: 44.7 µM [inhibitor, partial curve, poor fit]"
CSc1nc2ccc(NS(=O)(=O)c3c(Cl)cccc3Cl)cc2s1,inactive: -8.79%,
COc1ccc(NC(=O)N(C)C[C@@H]2Oc3cc(C#CCN(C)C)ccc3S(=O)(=O)N([C@H](C)CO)C[C@H]2C)cc1,,"inconclusive: 0.282 µM [inhibitor, full curve]"
O=C(CCCc1cccs1)N1CCN(S(=O)(=O)c2ccccc2Br)CC1,inactive: -14.4%,
CCOC(=O)c1sc(N2C(=O)C(O)=C(C(=O)c3ccco3)C2c2ccc([N+](=O)[O-])cc2)nc1C (stereo not given),,"inconclusive: 35.5 µM [inhibitor, partial curve]"
CC12CCC=CC1=C(C=O)C1C2CCC2(C)C(O)CCC12 (stereo not given),,"inconclusive: 39.8 µM [inhibitor, single point]"
Cc1ccc2occ(CC(=O)Nc3ccc(Cl)c(C(F)(F)F)c3)c2c1,,"inconclusive: 50.1 µM [inhibitor, partial curve, poor fit]"
CCOC(=O)C1=C(CC)Nc2ccccc2N/C1=N\S(=O)(=O)c1cc(Br)ccc1Br,,"inconclusive: 39.8 µM [inhibitor, partial curve, poor fit]"
COCCCN1CC23C=CC(O2)C(C(=O)OC)C3C1=O (stereo not given),inactive: -1.55%,
COCCNC(=O)c1cnn(-c2cccc(C)c2)c1-n1cccc1,,"inconclusive: 5.01 µM [inhibitor, full curve, poor fit]"

Structure (SMILES),"activity change, negative = inhibition",Potency
COc1cc(NC(C)CCCNC(C)C)c2ncccc2c1OC (stereo not given),,"inconclusive: 35.5 µM [inhibitor, partial curve]"
COc1ccc(-c2nc(NC(C)=O)sc2-c2ccccc2)cc1,,"inconclusive: 44.7 µM [inhibitor, partial curve, poor fit]"
CCOC(=O)Cn1c(=O)oc2cc(S(=O)(=O)NC(C)c3ccccc3)ccc21 (stereo not given),,"inconclusive: 22.4 µM [inhibitor, partial curve]"
N=c1c2c(ncn1Cc1ccco1)Oc1c(ccc3ccccc13)C2c1ccccc1 (stereo not given),inactive: -29.7%,
O=C(NCCCN1CCOCC1)C(=O)N/N=C/c1ccc2c(c1)OCO2,,"inconclusive: 7.94 µM [inhibitor, full curve, poor fit]"
Cc1cccc(S(=O)(=O)N(C)C[C@@H]2OCc3cnnn3CCCC(=O)N([C@@H](C)CO)C[C@@H]2C)c1,,"inconclusive: 0.316 µM [inhibitor, full curve, poor fit]"
CC(C)(C)OC(=O)NCCCC[C@H](NC(=O)c1nc[nH]c1C(=O)N1CCc2ccccc2C1)C(=O)OC(C)(C)C,,"inconclusive: 28.2 µM [inhibitor, partial curve]"
CCOC(=O)c1ccccc1NC(=O)N1CC(C)Oc2ccc(C)cc21 (stereo not given),,"inconclusive: 0.891 µM [inhibitor, full curve, poor fit]"
N/C(=N\OC(=O)Nc1ccccc1)c1ccno1,,"inconclusive: 5.01 µM [inhibitor, full curve, poor fit]"
O=C1c2ccccc2C(=Cc2cccnc2)c2ccccc21,inconclusive: -39.8% [inhibitor],
O=C(NCCN1CCOCC1)C1(C(F)(F)F)C/C(=C\Cc2ccccc2)CCCO1 (stereo not given),,"inconclusive: 8.91 µM [inhibitor, full curve, poor fit]"
COC(=O)c1sccc1S(=O)(=O)N1CCN(c2ccc(Cl)cc2)CC1,,"inconclusive: 22.4 µM [inhibitor, partial curve]"
COc1ccccc1CC(=O)NCc1csc(-c2cccs2)n1,inactive: -13.5%,
Cc1nc(N2CCc3ccccc3C2)[nH]c(=O)c1CCC(C)C,inactive: -4.65%,
CCOC(=O)c1ccccc1NC(=O)c1cc2c(s1)-c1ccccc1SC2,,"inconclusive: 15.8 µM [inhibitor, partial curve, poor fit]"
O=C(CCCn1c(=O)c2sccc2n(Cc2ccc(Cl)cc2)c1=O)NCc1ccc2c(c1)OCO2,,"inconclusive: 100 µM [inhibitor, partial curve, poor fit]"
FC(F)(F)C1=Nc2cccc3cccc(c23)N1,,"inconclusive: 7.94 µM [inhibitor, full curve]"
CN1CCN(C2=C(NS(=O)(=O)c3ccccc3)C(=O)c3ccccc3C2=O)CC1,,"inconclusive: 15.8 µM [inhibitor, partial curve]"
CCc1cccc(C)c1NC(=O)c1cc(S(=O)(=O)N2CCCCCC2)cn1C,inactive: -28.3%,
CCC1CCCCN1CCCNC(=O)c1ccc2c(c1)NC(=O)CN2C (stereo not given),,"inconclusive: 70.8 µM [inhibitor, partial curve, poor fit]"

# Exported as tab-separated lines: part of the list above.
Structure (SMILES)	activity change, negative = inhibition	Potency
COc1cc(NC(C)CCCNC(C)C)c2ncccc2c1OC (stereo not given)		inconclusive: 35.5 µM [inhibitor, partial curve]
CC(C)(C)OC(=O)NCCCC[C@H](NC(=O)c1nc[nH]c1C(=O)N1CCc2ccccc2C1)C(=O)OC(C)(C)C		inconclusive: 28.2 µM [inhibitor, partial curve]
N/C(=N\OC(=O)Nc1ccccc1)c1ccno1		inconclusive: 5.01 µM [inhibitor, full curve, poor fit]
COC(=O)c1sccc1S(=O)(=O)N1CCN(c2ccc(Cl)cc2)CC1		inconclusive: 22.4 µM [inhibitor, partial curve]

# (further entries)

Structure (SMILES),"activity change, negative = inhibition",Potency
O=S(=O)(Nc1cc2nc3ccccc3nc2n1Cc1ccccc1)c1ccc(Cl)cc1,,active: 25.1 µM
Cc1cccc(N2CCN(C(=O)c3cccn3-c3nnc(N4CCCCC4)s3)CC2)c1C,,"inconclusive: 70.8 µM [inhibitor, partial curve, poor fit]"
CC1CN(C(=S)SCC(=O)c2ccc([N+](=O)[O-])cc2)CC(C)O1 (stereo not given),,"inconclusive: 7.08 µM [inhibitor, partial curve]"
COc1c2ccc(OCC/C(C)=C/C(=O)C=C(C)C)cc2nc2occc12,,"inconclusive: 39.8 µM [inhibitor, partial curve, poor fit]"
CCN(C(=O)Cc1c(C(=O)O)c(C)cn1C)c1cccc(Cl)c1,,"inconclusive: 0.224 µM [inhibitor, full curve, poor fit]"
CC(C)NC(=O)Nc1cccc2c1O[C@H](CN(C)C(=O)Nc1ccc(C(F)(F)F)cc1)[C@@H](C)CN([C@H](C)CO)C2=O,,"inconclusive: 79.4 µM [inhibitor, partial curve, poor fit]"
O=C(CNc1ccc(Br)cc1)c1ccc(O)cc1,,"inconclusive: 44.7 µM [inhibitor, partial curve, poor fit]"
C=CCNC(=S)N1CCN(c2ccc([N+](=O)[O-])cc2)CC1,inactive: -2.37%,
O=c1cc(CSc2ccccc2)[nH]c2ccc(F)cc12,,"inconclusive: 12.6 µM [inhibitor, partial curve, poor fit]"
COc1ccc([C@H]2C[C@@H](n3cc(-c4ccc(F)cc4)nn3)[C@H](O)CN2CC2CCCCC2)cc1,,"inconclusive: 0.251 µM [inhibitor, full curve]"
CC(C)(C)OC(=O)C[C@@H]1C/C=C\C[C@H](CC(=O)N[C@@H](CO)Cc2ccccc2)C(=O)N[C@H](C(C)(C)C)COC1=O,,"inconclusive: 7.94 µM [inhibitor, partial curve]"
COc1ccc(C)c2sc(N(CCCN(C)C)C(=O)c3ccc(S(=O)(=O)N4CCc5ccccc5C4)cc3)nc12,,"inconclusive: 50.1 µM [inhibitor, partial curve, poor fit]"
CCC(=O)Nc1cccc(C(=O)c2ccccc2)c1,,"inconclusive: 1 µM [inhibitor, full curve, poor fit]"
CCC(C)NC(=O)CNC(=S)N(Cc1ccc(F)cc1)C1CCCCC1 (stereo not given),inactive: -10.9%,
Cc1ccc(C(=O)/C=C/c2cc(Br)cc(Br)c2O)o1,,"inconclusive: 6.31 µM [inhibitor, full curve, poor fit]"
C/C=C\C(=O)Nc1cccc(C2=NOC3(C2)C[C@H](C(N)=O)N(C(=O)[C@H]2CCC(=O)N2)C3)c1 (stereo not given in full),,"inconclusive: 0.0891 µM [inhibitor, full curve, poor fit]"
CCC(=O)Nc1ccc2nc(SCC(=O)N3CCOCC3)sc2c1,,"inconclusive: 5.62 µM [inhibitor, single point]"
O=C(CN1C2CCCC1CC(NC(=O)c1ccccc1)C2)Nc1ccccc1 (stereo not given),,"inconclusive: 39.8 µM [inhibitor, single point]"
CCOCC(=O)Nc1ccc(S(=O)(=O)Nc2nccs2)cc1,inactive: -6.97%,
N#Cc1ccc(-n2c(-c3ccccc3)nnc2-c2ccccc2)cc1C#N,,"inconclusive: 0.708 µM [inhibitor, full curve, poor fit]"
